# Source: patent US4667019A, “Azo dyes containing a triazolyl group for use in liquid crystalline materials” (Kernforschungszentrum Karlsruhe GmbH, priority 1986, dated 1987)
# Test: light-stability, high-speed exposure of the measuring cell in a Suntest
# Format: physicochemical
# Settings: before exposure, 25° C
# Method: The light-stability was determined by high-speed exposure of the measuring cell in a Suntest from Hanau, at 25° C. In this procedure, the decrease in E^.parallel. was measured. The initial extinction E^.parallel. and the exposure time E^.parallel.80% after which E^.parallel. has decreased to 80% are shown in Table 2 for Examples 5, 8, 9, 10, 11, 12, 13, 14 and 15. The percentage change in E^.parallel.0 is plotted against the exposure time in FIGS. 2, 3 and 4 for Examples 8, 11 and 15.
row,SMILES,"initial extinction E∥ (Eo "")"
1,CCOC(=O)c1nn(-c2ccc(N=Nc3cc(C)c(N=Nc4ccc(N(C)C)cc4)cc3C)cc2)nc1C [Example 5],"1,39"
2,CCCCc1ccc2nn(-c3ccc(N=Nc4ccc(N=Nc5ccc(N(C)C)cc5)cc4C)cc3C)nc2c1 [Example 15],"1,25"
3,Cc1ccc2nn(-c3ccc(N=Nc4cc(C)c(N=Nc5ccc(N(C)C)cc5)cc4C)cc3)nc2c1 [Example 10],"1,88"
4,CCOC(=O)c1nn(-c2ccc(N=Nc3ccc(N=Nc4ccc(N(C)C)cc4)c4ccccc34)cc2)nc1C [Example 8],"1,16"
5,CCCCN(CCCC)c1ccc(N=Nc2ccc(N=Nc3ccc(-n4nc5ccc(C)cc5n4)c(C)c3)c(C)c2)cc1 [Example 13],"1,80"
6,Cc1ccc2nn(-c3ccc(N=Nc4ccc(N=Nc5ccc(N)cc5C)cc4C)cc3C)nc2c1 [Example 11],"1,63"
7,Cc1ccc2nn(-c3cc(C)c(N=Nc4cc(C)c(N=Nc5ccc(N(C)C)cc5)cc4C)cc3C)nc2c1 [Example 9],"1,47"
8,CCCCc1ccc2nn(-c3ccc(N=Nc4cc(C)c(N=Nc5ccc(N(C)C)cc5)cc4C)cc3C)nc2c1 [Example 14],"1,57"
